Results reported in doi:10.1101/2022.04.06.487319 (bioRxiv, 2022).
These are yes or no findings as the source states them, for the method shown.

Target: strep-Hop1 (full length, Hop1-Red1 complex from Hi5 cells) (Saccharomyces cerevisiae) (UniProt P20050)
Assay: mass photometry

B1: strep-Hop1 (full length, Hop1-Red1 complex from Hi5 cells) (natural protein, Saccharomyces cerevisiae, UniProt P20050 1-605, looked up)
chain: MSNKQLVKPKTETKTEITTEQSQKLLQTMLTMSFGCLAFLRGLFPDDIFVDQRFVPEKVEKNYNKQNTSQNNSIKIKTLIRGKSAQADLLLDWLEKGVFKSIRLKCLKALSLGIFLEDPTDLLENYIFSFDYDEENNVNINVNLSGNKKGSKNADPENETISLLDSRRMVQQLMRRFIIITQSLEPLPQKKFLTMRLMFNDNVDEDYQPELFKDATFDKRATLKVPTNLDNDAIDVGTLNTKHHKVALSVLSAATSSMEKAGNTNFIRVDPFDLILQQQEENKLEESVPTKPQNFVTSQTTNVLGNLLNSSQASIQPTQFVSNNPVTGICSCECGLEVPKAATVLKTCKSCRKTLHGICYGNFLHSSIEKCFTCIFGPSLDTKWSKFQDLMMIRKVFRFLVRKKKGFPASITELIDSFINVEDQNNEVKERVAFALFVFFLDETLCLDNGGKPSQTIRYVTSSVLVDVKGIVIPNTRKQLNVNHEYKWHFTTSSPKAESFYQEVLPNSRKQVESWLQDITNLRKVYSEALSPSSTLQELDLNSSLPTQDPIISGQKRRRYDLDEYLEEDKSSVVNDTIKAKDFDESVPAKIRKISVSKKTLKSNW
binding: no binding (tested: 30 nM)
